Measured values as given in patent publication US8962573B2 (INSERM (Institut National de la Sante et de la Recherche …, priority 2009, dated 2015).
Some of these results come from one statement about several compounds together.

Format: in vitro ADME
Conditions: after 16 h incubation in human serum
Description: Previous results have shown that a complex cathepsin D/anti-cathepsin D antibody was specifically internalised by CI-M6PR in normal human fibroblasts [Laurent-Matha V et al., J Cell Sci. 111: 2539-49, 1998]. The complex was here detected by immunofluorescence staining.
The binding affinity of AMFA-1, AMFA-2, AMFA-3 and AMFA-5 to CI-M6PR was determined at 20° C. (A) or in the presence of 75% human serum at 37° C. […] Methods are identical to 1.8 section.

## NNC(=O)CCCCCO[C@H]1O[C@H](CCP(=O)(O)O)[C@@H](O)[C@H](O)[C@@H]1O.[Na].[Na] [AMFA-1, 5-hydrazinocarbonylpentyl 6-deoxy-6-dihydroxyphosphinylmethyl-α-D-mannopyranoside disodium salt]
  binding capacity retained: > 85%
